Data as given in PubChem BioAssay AID743454 (Peter MacCallum Cancer Centre, 2014).

Purpose: 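Genes whose loss kills vorinostat-resistant colon cancer cells under vorinostat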 (primary screen)
Cell system: human HCT116-VR colon cancer cells, selected for vorinostat resistance
Reagent: siRNA pool against human genes, 40 nM siRNA pool
Time to read-out: vorinostat for 24 h, read-out about 72 h after transfection
Treatment: vorinostat at 2.5 µM final
Measurement: 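Two measures, CellTiter-Fluor viability and luminescent caspase 3/7 activity, each as fold change against same-plate mock wells, mean of duplicates, then screen-wide robust z-score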
Scale: viability robust z-score: higher = more viable cells than screen typical; caspase robust z-score: higher = more caspase 3/7 activity than screen typical
Active means: 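a knock-down is a hit when classed RV1 or RV2 for lowered viability, or CA1 or CA2 for caspase activation; those lethal without drug were dropped; hits were retested singly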
Here is one part, drawn at random, of about 18,000 deposited reagents. 450 of them (2.5%) were called active. 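Single biological run; no consistent viability z cut-off exists, so the class columns, not z-scores, define the calls.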

no.	gene symbol	viability hit class	caspase hit class	viability robust z-score	caspase robust z-score	Call
1	TAS2R45	no change	no change	-1.29	1.44	inactive
2	PRSS53	no change	no change	0.42	2.43	inactive
3	PARP1	no change	no change	-0.38	1.52	inactive
4	IL20RB	no change	no change	1.69	0.94	inactive
5	PMPCB	no change	no change	0.46	-0.84	inactive
6	TTC39C	no change	no change	0.72	0.76	inactive
7	CATSPER4	no change	CA2 (caspase activation)	-1.75	5.19	active
8	ATP5PF	no change	no change	-0.08	1.11	inactive
9	COX7A2	no change	no change	0.06	-0.51	inactive
10	RHCG	no change	no change	0.22	0.66	inactive
11	EMC8	no change	no change	0.28	0.28	inactive
12	KRT77	no change	no change	0.61	0.87	inactive
13	PRPF19	no change	no change	-0.73	1.03	inactive
14	KCTD5	no change	no change	-0.85	0.86	inactive

Targets listed so far whose target name starts with P or p:
gene symbol	viability hit class	caspase hit class	viability robust z-score	caspase robust z-score	Call
PRSS53	no change	no change	0.42	2.43	inactive
PARP1	no change	no change	-0.38	1.52	inactive
PMPCB	no change	no change	0.46	-0.84	inactive
PRPF19	no change	no change	-0.73	1.03	inactive

Next records follow.
no.	gene symbol	viability hit class	caspase hit class	viability robust z-score	caspase robust z-score	Call
15	ARMC7	no change	no change	0.32	1.35	inactive
16	SLX1B	no change	no change	-0.43	-0.99	inactive
17	ESPNL	no change	no change	0.86	1.04	inactive
18	PCSK7	no change	no change	1.28	3.7	inactive
19	KLK12	no change	no change	0.66	0.24	inactive
20	OR4N5	no change	no change	0.22	0.09	inactive
21	KLRF1	no change	no change	0.3	-0.49	inactive
22	PWWP3B	no change	no change	0.92	-1.12	inactive
23	PGGT1B	no change	no change	0.26	-0.1	inactive
24	GIPC3	no change	no change	0.84	-1.04	inactive
25	UHMK1	no change	no change	-0.16	-0.43	inactive
26	NIPSNAP3B	no change	no change	-0.8	-1.09	inactive
27	YY1AP1	no change	no change	-0.02	2.14	inactive
28	KTI12	no change	no change	0.52	0.09	inactive
29	CCDC170	no change	no change	0.31	0.05	inactive
30	DST	no change	no change	2.24	0.12	inactive
31	REX1BD	no change	no change	-0.38	-0.48	inactive
32	PEBP1	no change	no change	0.6	-0.21	inactive
33	CA8	no change	no change	0.86	1.39	inactive
34	PUS10	no change	no change	0.85	-0.76	inactive
35	EFCAB13	no change	no change	0.66	-0.14	inactive
36	SKOR1	no change	no change	0.04	-0.76	inactive
37	KIFBP	no change	no change	-0.8	2.82	inactive
38	TMEM143	no change	no change	0.88	-0.37	inactive
39	ZFYVE27	no change	no change	-1.29	-0.39	inactive
